Results are given in words; binding and its absence hold for the method and conditions named. Binding seen in cells or lysates may run through a third protein. Some entries that bind do so weakly or less than the wild type. Sequences can lack the tags named with a protein. Values belong to the binder of their own block, whether it stands above or below them.
Experiments:
[1] = biological target: T1, HA-tagged PLIN2 (perilipin-2) (human) (UniProt Q99541); test: co-IP; HEK 293T cells transfected with the indicated plasmids, treated with DMSO or daclatasvir (10 μM) for 12 h; IP lysis buffer (20 mM Tris-HCl pH 7.4, 150 mM NaCl, 1 mM EDTA, 1% NP-40); lysate with protein A/G agarose beads and the indicated antibody overnight at 4°C; Western blot
T1 sequence: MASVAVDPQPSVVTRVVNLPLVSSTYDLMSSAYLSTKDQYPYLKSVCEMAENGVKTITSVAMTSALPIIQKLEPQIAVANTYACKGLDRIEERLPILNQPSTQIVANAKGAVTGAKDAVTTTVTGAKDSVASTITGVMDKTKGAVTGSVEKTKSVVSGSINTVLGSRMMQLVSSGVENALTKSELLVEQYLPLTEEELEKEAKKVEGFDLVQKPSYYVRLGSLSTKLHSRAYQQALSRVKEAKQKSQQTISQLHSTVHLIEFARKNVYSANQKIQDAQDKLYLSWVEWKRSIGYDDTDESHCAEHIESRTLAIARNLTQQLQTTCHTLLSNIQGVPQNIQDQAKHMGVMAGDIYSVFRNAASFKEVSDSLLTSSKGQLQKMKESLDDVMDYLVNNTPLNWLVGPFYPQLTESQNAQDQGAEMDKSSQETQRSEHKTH

[2] = biological target: T2, Flag-tagged UBR1 (human), Q8IWV7; test: as above; details: remark: other sources report otherwise
T2 chain: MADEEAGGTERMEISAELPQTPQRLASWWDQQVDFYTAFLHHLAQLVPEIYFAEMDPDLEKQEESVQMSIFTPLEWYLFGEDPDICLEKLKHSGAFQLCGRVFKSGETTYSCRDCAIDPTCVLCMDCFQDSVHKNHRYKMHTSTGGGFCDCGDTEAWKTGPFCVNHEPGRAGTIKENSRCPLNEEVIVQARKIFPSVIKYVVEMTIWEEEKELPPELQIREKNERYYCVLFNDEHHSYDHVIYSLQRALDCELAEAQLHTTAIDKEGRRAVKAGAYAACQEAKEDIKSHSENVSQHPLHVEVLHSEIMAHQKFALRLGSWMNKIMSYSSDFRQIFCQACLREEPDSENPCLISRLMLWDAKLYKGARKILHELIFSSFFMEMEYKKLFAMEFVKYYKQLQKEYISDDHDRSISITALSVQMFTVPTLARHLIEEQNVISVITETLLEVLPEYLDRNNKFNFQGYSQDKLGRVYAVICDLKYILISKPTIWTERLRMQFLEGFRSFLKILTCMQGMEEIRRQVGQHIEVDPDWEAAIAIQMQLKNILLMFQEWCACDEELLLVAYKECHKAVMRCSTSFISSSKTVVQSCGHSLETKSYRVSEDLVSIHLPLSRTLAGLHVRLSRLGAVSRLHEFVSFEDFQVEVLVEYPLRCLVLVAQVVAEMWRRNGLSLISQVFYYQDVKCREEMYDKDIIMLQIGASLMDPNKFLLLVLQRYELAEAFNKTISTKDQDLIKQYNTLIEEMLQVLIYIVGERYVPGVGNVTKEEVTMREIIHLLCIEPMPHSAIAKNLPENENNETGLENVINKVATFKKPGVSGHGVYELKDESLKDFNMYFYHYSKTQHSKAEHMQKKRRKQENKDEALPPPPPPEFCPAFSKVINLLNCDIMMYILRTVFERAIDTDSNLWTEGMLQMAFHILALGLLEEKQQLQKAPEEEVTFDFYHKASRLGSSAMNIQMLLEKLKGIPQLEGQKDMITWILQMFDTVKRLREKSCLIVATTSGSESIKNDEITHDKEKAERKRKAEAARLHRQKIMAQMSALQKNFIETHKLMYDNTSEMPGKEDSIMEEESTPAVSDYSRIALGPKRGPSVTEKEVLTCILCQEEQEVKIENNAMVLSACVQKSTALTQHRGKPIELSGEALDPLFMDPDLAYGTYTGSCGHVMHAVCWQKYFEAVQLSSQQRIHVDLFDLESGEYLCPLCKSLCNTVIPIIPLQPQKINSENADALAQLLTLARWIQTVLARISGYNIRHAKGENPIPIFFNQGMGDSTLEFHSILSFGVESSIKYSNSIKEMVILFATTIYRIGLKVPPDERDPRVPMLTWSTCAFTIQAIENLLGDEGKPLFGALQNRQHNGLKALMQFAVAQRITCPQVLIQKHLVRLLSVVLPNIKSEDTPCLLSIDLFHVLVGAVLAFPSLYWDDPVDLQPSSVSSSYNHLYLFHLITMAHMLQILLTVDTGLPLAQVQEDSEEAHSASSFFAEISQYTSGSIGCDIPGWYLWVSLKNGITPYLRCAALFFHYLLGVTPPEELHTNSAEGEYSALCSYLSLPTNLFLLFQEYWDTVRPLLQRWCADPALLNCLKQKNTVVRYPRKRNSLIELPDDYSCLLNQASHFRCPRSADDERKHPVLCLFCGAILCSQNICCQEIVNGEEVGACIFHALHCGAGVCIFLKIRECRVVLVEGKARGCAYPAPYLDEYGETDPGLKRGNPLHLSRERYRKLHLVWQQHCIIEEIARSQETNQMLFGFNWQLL

- binding [1]: binds
B1: Flag-tagged MARCH6 (enzyme, UniProt O60337 1-910)
chain: MDTAEEDICRVCRSEGTPEKPLYHPCVCTGSIKFIHQECLVQWLKHSRKEYCELCKHRFAFTPIYSPDMPSRLPIQDIFAGLVTSIGTAIRYWFHYTLVAFAWLGVVPLTACRIYKCLFTGSVSSLLTLPLDMLSTENLLADCLQGCFVVTCTLCAFISLVWLREQIVHGGAPIWLEHAAPPFNAAGHHQNEAPAGGNGAENVAADQPANPPAENAVVGENPDAQDDQAEEEEEDNEEEDDAGVEDAADANNGAQDDMNWNALEWDRAAEELTWERMLGLDGSLVFLEHVFWVVSLNTLFILVFAFCPYHIGHFSLVGLGFEEHVQASHFEGLITTIVGYILLAITLIICHGLATLVKFHRSRRLLGVCYIVVKVSLLVVVEIGVFPLICGWWLDICSLEMFDATLKDRELSFQSAPGTTMFLHWLVGMVYVFYFASFILLLREVLRPGVLWFLRNLNDPDFNPVQEMIHLPIYRHLRRFILSVIVFGSIVLLMLWLPIRIIKSVLPNFLPYNVMLYSDAPVSELSLELLLLQVVLPALLEQGHTRQWLKGLVRAWTVTAGYLLDLHSYLLGDQEENENSANQQVNNNQHARNNNAIPVVGEGLHAAHQAILQQGGPVGFQPYRRPLNFPLRIFLLIVFMCITLLIASLICLTLPVFAGRWLMSFWTGTAKIHELYTAACGLYVCWLTIRAVTVMVAWMPQGRRVIFQKVKEWSLMIMKTLIVAVLLAGVVPLLLGLLFELVIVAPLRVPLDQTPLFYPWQDWALGVLHAKIIAAITLMGPQWWLKTVIEQVYANGIRNIDLHYIVRKLAAPVISVLLLSLCVPYVIASGVVPLLGVTAEMQNLVHRRIYPFLLMVVVLMAILSFQVRQFKRLYEHIKNDKYLVGQRLVNYERKSGKQGSSPPPPQSSQE

- binding [2]: binds
B2: HA-tagged PLIN2 (perilipin-2), Q99541 1-437 (protein)
chain: T1 sequence

— article PMC12268039
